Measured values taken from PubChem BioAssay AID493014 (National Center for Advancing Translational Sciences (NCATS), 2011).
The list shows a part of the results. Shown are side measurements of this screen, not its main read-out; they come without a call. Compounds called inactive in the main read-out are mostly missing here. The note in brackets gives the kind of curve behind each potency; many fits are weak.

Assay: qHTS Assay to Find Inhibitors of Chronic Active B-Cell Receptor Signaling
Conditions: ABC-DLBCL IkBa-CBG/CBR reporter, luminescence ratio (green luciferase fused to IkBa over red control in TMD8 lymphoma cells), 4 h
How it was run: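 TMD8 ABC-DLBCL cells carrying doxycycline-inducible green luciferase fused to IkappaBalpha plus unfused red luciferase were exposed to compounds (up to 46 uM) for 4 hrs at 37C. Activity came from the overlap-corrected green/red luminescence ratio.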

[1] = measured here: CBR red luminescence, cell number
[2] = measured here: IkBa-CBG green luminescence

| SMILES | AC50 [1] | AC50 [2] |
| --- | --- | --- |
| CN1CCN(C(=O)CN2C(=O)NC(C)(c3ccc4ccccc4c3)C2=O)CC1 (centres undefined) | 32.6 µM [rising, partial curve, poor fit] | – |
| COc1ccc(S(=O)(=O)N(C)C[C@H]2Oc3ccc(NC(=O)Nc4ccc5c(c4)OCO5)cc3CC(=O)N([C@@H](C)CO)C[C@@H]2C)cc1 | 14.6 µM [rising, partial curve, poor fit] | – |
| Cc1ccc(C(=O)CSc2nn3c(=O)c(C(C)(C)C)nnc3s2)cc1 | 22.4 µM [falling, single point] | – |
| COC(=O)c1ccc(-c2noc(CN3CCCC(CNC(C)=O)C3)n2)cc1 (centres undefined) | 6.31 µM [rising, partial curve, poor fit] | – |
| CC(C)COc1ccc(/C=C2/Sc3ccccc3C2=O)cc1 | 3.16 µM [falling, partial curve, poor fit] | – |
| CCCn1c(SCC(=O)Nc2cccc(C(=O)OC)c2)nnc1-c1cccnc1 | 8.2 µM [falling, partial curve] | – |
| CC(=O)N1CCN(C(=O)c2ccc(S(=O)(=O)Nc3ccccc3C)cc2)CC1 | 18.4 µM [falling, partial curve, poor fit] | – |
| Cc1cccc(NC(=O)CSc2ncnc3sc(C)c(C)c23)n1 | 10 µM [falling, partial curve, poor fit] | – |
| CCOc1ccc(-c2nnc3ccc(SCc4ccc(C(=O)OC)o4)nn23)cc1 | 29.1 µM [falling, single point] | – |
| O=C(O)c1ccccc1C(=O)Nc1ccc(Oc2ccc3ccccc3c2)cc1 | 7.94 µM [falling, partial curve, poor fit] | – |
| CCOC(=O)[C@H]1[C@H]2COc3ccccc3[C@@H]2N2C(=O)c3c(C)cc(C)cc3NC(=O)[C@@]12C | 2.31 µM [falling, full curve, poor fit] | – |
| BrC(/C=N/Nc1nc(N2CCOCC2)nc(N2CCOCC2)n1)=C/c1ccccc1 | 10 µM [falling, partial curve] | – |
| Cc1cc(=O)c(C(=O)Nc2cccc(N3CCCC3=O)c2)nn1-c1ccccc1F | 5.17 µM [rising, full curve, poor fit] | – |
| CN1CCN(C(=S)NC(=O)c2ccco2)CC1 | 1.58 µM [rising, partial curve, poor fit] | – |
| COc1ccc(S(=O)(=O)N(C)c2ccccc2)c2cccnc12 | 11.2 µM [rising, partial curve, poor fit] | – |
| CCOc1ccc(C2c3cc(OC)c(OC)cc3CC(=O)N2c2ccccc2)cc1 (centres undefined) | 15.8 µM [rising, single point] | – |
| O=C1N(Cc2cccc(Cl)c2)C[C@@H]2C[C@@H](c3cccc4ncccc34)N3CCC[C@@]123 | 6.31 µM [falling, full curve] | – |
| Cc1ccc(-c2ccc(SCC(=O)c3ccccc3)nn2)cc1 | 29.1 µM [falling, partial curve, poor fit] | – |
| COC(=O)c1cc(OC)c(OC)cc1N=CC1=C(O)CC(C)(C)CC1=O | 1.12 µM [rising, full curve, poor fit] | – |
| COc1ccc(/C=N/NC(=O)c2cccnc2)cc1COc1ccc([N+](=O)[O-])cc1 | 28.2 µM [falling, single point] | – |
| COc1cc(-c2nc(Cc3c(F)cccc3Cl)no2)cc(OC)c1OC | 0.316 µM [rising, full curve, poor fit] | – |

| SMILES | AC50 [1] | AC50 [2] |
| --- | --- | --- |
| O=C(O)c1ccc(N/N=C/C(Br)=C/c2ccccc2)cc1 | 0.0891 µM [falling, full curve] | – |
| CCCCC1=NN(C(=O)c2cccnc2)C(O)(C(F)(F)F)C1 (centres undefined) | 11.2 µM [falling, partial curve] | – |
| COc1ccc(Cl)cc1NC(=S)NCCC(c1ccccc1)c1ccccc1 | 13 µM [falling, partial curve] | – |
| O=C(CSc1nnc(-c2c[nH]c3ccccc23)o1)c1ccccc1 | 0.316 µM [falling, full curve, poor fit] | – |
| CCOc1ccccc1-n1c(SCC(=O)N(C(C)C)C(C)C)nnc1-c1cccnc1 | 29.1 µM [falling, single point] | – |
| Cc1[nH]c2ccccc2c1/C=N/Nc1ccc([N+](=O)[O-])cc1S(=O)(=O)Nc1ccc(Cl)cc1 | 4.61 µM [falling, partial curve, poor fit] | – |
| CCCCOCCCNC(=O)c1c(-c2ccccc2)noc1C | 4.11 µM [falling, partial curve, poor fit] | – |
| CCc1ccc(S(=O)(=O)Nc2ccc(-c3ccc4nnc(C)n4n3)cc2)s1 | 11.6 µM [rising, partial curve] | 11.6 µM [falling, partial curve] |
| CCN(CC)CCCNC(=O)c1nn(-c2ccccc2OC)c(=O)c2ccccc12 | 29.1 µM [falling, single point] | – |
| O=C(Oc1cccc(NC2=NS(=O)(=O)c3ccccc32)c1)c1ccncc1 | 15.8 µM [rising, single point] | – |
| COc1ccc(/C=C(\C#N)C(=O)c2cccn2C)cc1 | 14.1 µM [falling, partial curve, poor fit] | – |
| O=C(CNC(=O)c1ccc(Br)cc1)N/N=C/c1ccc[nH]1 | 25.9 µM [rising, single point] | – |
| Cc1c(C(=O)OC(C)C(=O)N(C)Cc2ccccc2)oc2ccccc12 (centres undefined) | 0.58 µM [rising, full curve, poor fit] | – |
| Cc1ccc(CNC(=O)CSCc2ccccc2)cc1 | 0.708 µM [rising, full curve, poor fit] | – |
| CC(C)CNC(=S)N1CCC(c2nc(-c3ccc(F)cc3)no2)CC1 | 35.5 µM [falling, single point] | – |
| N#Cc1c(/N=C/N2CCCC2)oc(-c2ccccc2)c1-c1ccccc1 | 6.51 µM [rising, single point] | – |
| O=C(CSc1ccccn1)Nc1ccc(F)c([N+](=O)[O-])c1 | 15.8 µM [falling, single point] | – |
| O=C(Nc1ccc(Br)cc1F)c1cc(S(=O)(=O)NC2CCCCC2)ccc1F | 35.5 µM [falling, single point] | – |
| CCCn1nc(NC(=O)c2ccncc2)c2cc3ccccc3nc21 | 7.94 µM [falling, partial curve] | – |
| O=C(O)c1ccc2c(c1)C(=O)N([C@@H](C(=O)O)C(c1ccccc1)c1ccccc1)C2=O | 0.00461 µM [rising, full curve, poor fit] | – |
| O=C(O)c1cc([N+](=O)[O-])c(N2CCCC2)c([N+](=O)[O-])c1 | 9.2 µM [rising, partial curve, poor fit] | – |

| SMILES | AC50 [1] | AC50 [2] |
| --- | --- | --- |
| CSCC[C@H](NC(=O)c1ccc(OCC2CCCO2)cc1)c1nc2ccccc2[nH]1 (some centres undefined) | 7.31 µM [rising, partial curve, poor fit] | – |
| Cc1ccc(NC(=O)C(=O)Nc2ccccn2)cc1 | 0.82 µM [falling, full curve] | – |
| Cn1c(CNC(=O)Nc2cccc(Cl)c2)nnc1SCc1ccccc1 | 1 µM [rising, full curve, poor fit] | – |
| O=C(COc1ccccc1)NNC(=O)COc1ccc([N+](=O)[O-])cc1 | 12.6 µM [rising, partial curve, poor fit] | – |
| O=C(Nc1ccc(Cl)cc1)C1(S(=O)(=O)c2ccccc2)CC1 | 20.6 µM [rising, partial curve, poor fit] | – |
| Fc1ccc(-c2nnc(N3CCOCC3)c3ccccc23)cc1F | 0.794 µM [rising, full curve, poor fit] | – |
| O=C(CN1C(=O)c2cccc3cccc1c23)Nc1ccc(S(=O)(=O)Nc2nccs2)cc1 | 20.6 µM [rising, single point] | – |
| C=CC[C@H](CC(=O)N(CCO)Cc1ccccc1)C(=O)NC[C@@H](OC(=O)[C@@H](CC=C)Cc1ccc(F)cc1)c1ccccc1 | 8.2 µM [falling, partial curve] | – |
| COc1ccc(/C(C)=N/Nc2ccc(C(=O)O)cc2)cc1OC | 0.0461 µM [falling, full curve] | 18.4 µM [falling, partial curve, poor fit] |
| CCC1(CC)Cc2ccccc2-c2nc(-c3ccccc3)oc(=O)c21 | 5.8 µM [falling, full curve] | – |
| COc1ccccc1N1Cc2ccccc2C1 | 35.5 µM [falling, single point] | – |
| CC1CN(c2nc(Nc3ccccc3)nc(N)c2[N+](=O)[O-])CC(C)O1 (centres undefined) | 14.1 µM [falling, partial curve, poor fit] | – |
| CCN(CC)CCn1c(NC(=O)c2ccccc2O)nc2ccccc21 | 35.5 µM [falling, single point] | – |
| Nc1ccc(-c2ncc(-c3ccccc3)o2)cc1 | 0.708 µM [rising, partial curve, poor fit] | – |
| NNc1nc2c(F)cc(F)cc2s1 | 29.1 µM [falling, single point] | – |
| Cc1cc(SCc2ccc(Br)cc2)nc(=O)[nH]1 | 20 µM [rising, single point] | – |
| Cc1cc2c(cc1C)NC(c1ccccn1)C1=C(CC(C)(C)CC1=O)N2 (centres undefined) | 25.9 µM [rising, single point] | 0.92 µM [rising, full curve, poor fit] |
| COc1ccc(-c2cn3cccc(C)c3n2)cc1F | 1.58 µM [rising, partial curve, poor fit] | – |
| Cc1sc(NC(=O)CN2CCN(c3ccccn3)CC2)c(C#N)c1C | 0.13 µM [falling, full curve, poor fit] | – |

Gathered by group, those above with a thiophene ring, fused or not

| SMILES | AC50 [1] | AC50 [2] |
| --- | --- | --- |
| Cc1cccc(NC(=O)CSc2ncnc3sc(C)c(C)c23)n1 | 10 µM [falling, partial curve, poor fit] | – |
| CCc1ccc(S(=O)(=O)Nc2ccc(-c3ccc4nnc(C)n4n3)cc2)s1 | 11.6 µM [rising, partial curve] | 11.6 µM [falling, partial curve] |
| Cc1sc(NC(=O)CN2CCN(c3ccccn3)CC2)c(C#N)c1C | 0.13 µM [falling, full curve, poor fit] | – |
